This is an account of results in article PMC4541046.

Chains of the proteins cited; added tags and fusions are not shown. Lines headed by an entry give the natural chain unless they say otherwise; changes in a name come on top.
UniProt P49023: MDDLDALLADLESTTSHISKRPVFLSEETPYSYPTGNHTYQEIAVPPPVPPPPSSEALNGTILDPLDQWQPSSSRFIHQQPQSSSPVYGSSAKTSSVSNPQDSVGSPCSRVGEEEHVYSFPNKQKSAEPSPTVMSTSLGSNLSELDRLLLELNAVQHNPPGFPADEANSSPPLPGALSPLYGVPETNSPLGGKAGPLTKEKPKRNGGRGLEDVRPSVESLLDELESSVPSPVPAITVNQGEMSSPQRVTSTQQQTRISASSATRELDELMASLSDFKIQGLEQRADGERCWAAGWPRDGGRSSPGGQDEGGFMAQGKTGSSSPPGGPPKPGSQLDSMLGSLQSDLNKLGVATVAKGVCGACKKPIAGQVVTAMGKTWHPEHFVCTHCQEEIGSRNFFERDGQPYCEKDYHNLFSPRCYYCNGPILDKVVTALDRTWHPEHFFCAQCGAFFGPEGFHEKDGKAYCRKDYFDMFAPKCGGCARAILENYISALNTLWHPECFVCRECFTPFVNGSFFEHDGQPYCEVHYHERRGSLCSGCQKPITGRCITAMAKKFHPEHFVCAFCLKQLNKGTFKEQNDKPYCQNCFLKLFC
UniProt Q96RN5: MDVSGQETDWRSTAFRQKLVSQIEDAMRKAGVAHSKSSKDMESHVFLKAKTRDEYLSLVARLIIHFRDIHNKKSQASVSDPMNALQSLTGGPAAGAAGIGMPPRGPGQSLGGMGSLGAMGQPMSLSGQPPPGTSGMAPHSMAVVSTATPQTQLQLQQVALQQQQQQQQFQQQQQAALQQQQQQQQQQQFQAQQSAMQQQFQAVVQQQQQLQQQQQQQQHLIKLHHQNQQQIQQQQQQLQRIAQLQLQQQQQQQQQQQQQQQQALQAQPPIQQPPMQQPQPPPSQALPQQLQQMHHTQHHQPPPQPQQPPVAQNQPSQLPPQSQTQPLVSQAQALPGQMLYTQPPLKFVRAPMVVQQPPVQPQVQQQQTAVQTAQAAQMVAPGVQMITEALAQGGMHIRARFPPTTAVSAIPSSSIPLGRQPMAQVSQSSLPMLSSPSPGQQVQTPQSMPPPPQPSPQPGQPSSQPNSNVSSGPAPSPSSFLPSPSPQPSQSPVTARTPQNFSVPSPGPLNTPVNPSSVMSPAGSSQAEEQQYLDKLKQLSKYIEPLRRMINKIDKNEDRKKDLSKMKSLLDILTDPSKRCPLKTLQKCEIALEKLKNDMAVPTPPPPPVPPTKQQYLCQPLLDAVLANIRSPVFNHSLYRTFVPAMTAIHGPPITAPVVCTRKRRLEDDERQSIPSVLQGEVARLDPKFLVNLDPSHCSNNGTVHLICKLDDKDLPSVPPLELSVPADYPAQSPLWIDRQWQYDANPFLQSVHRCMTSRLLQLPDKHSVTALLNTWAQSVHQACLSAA
UniProt Q9UQE7: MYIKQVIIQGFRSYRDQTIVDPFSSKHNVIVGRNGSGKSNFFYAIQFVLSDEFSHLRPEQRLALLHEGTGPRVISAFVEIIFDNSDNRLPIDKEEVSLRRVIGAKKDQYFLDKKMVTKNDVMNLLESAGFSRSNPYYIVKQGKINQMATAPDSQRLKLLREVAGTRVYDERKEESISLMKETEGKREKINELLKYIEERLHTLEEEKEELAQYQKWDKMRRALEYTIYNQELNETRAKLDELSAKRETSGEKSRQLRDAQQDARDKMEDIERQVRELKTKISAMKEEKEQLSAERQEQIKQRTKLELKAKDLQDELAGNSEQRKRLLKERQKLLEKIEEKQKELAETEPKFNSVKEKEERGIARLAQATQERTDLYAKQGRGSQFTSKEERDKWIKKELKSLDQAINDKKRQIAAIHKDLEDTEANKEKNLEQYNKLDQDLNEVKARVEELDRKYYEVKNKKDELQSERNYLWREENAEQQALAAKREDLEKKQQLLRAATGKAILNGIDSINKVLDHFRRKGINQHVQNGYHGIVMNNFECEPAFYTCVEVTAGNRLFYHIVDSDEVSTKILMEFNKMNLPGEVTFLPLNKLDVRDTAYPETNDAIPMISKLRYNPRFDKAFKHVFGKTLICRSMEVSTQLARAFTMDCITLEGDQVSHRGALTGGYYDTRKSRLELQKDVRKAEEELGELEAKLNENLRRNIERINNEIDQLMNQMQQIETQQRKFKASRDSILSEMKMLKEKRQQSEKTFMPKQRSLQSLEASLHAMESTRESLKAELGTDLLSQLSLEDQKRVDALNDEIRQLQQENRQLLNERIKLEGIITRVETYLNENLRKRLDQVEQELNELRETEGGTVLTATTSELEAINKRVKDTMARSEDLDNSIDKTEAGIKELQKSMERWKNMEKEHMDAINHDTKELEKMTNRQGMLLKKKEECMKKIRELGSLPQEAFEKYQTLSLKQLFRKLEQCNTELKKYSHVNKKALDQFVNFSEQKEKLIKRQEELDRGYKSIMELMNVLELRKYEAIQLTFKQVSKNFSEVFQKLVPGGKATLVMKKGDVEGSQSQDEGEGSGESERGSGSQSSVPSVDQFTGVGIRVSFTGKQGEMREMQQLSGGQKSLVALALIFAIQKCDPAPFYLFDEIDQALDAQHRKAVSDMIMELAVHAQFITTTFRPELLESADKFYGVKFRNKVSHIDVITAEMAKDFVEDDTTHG

Sequences and labels used below:
B1: structural maintenance of chromosomes 1A protein (SMC1A) (protein, UniProt Q14683 1-1233)
chain: MGFLKLIEIENFKSYKGRQIIGPFQRFTAIIGPNGSGKSNLMDAISFVLGEKTSNLRVKTLRDLIHGAPVGKPAANRAFVSMVYSEEGAEDRTFARVIVGGSSEYKINNKVVQLHEYSEELEKLGILIKARNFLVFQGAVESIAMKNPKERTALFEEISRSGELAQEYDKRKKEMVKAEEDTQFNYHRKKNIAAERKEAKQEKEEADRYQRLKDEVVRAQVQLQLFKLYHNEVEIEKLNKELASKNKEIEKDKKRMDKVEDELKEKKKELGKMMREQQQIEKEIKEKDSELNQKRPQYIKAKENTSHKIKKLEAAKKSLQNAQKHYKKRKGDMDELEKEMLSVEKARQEFEERMEEESQSQGRDLTLEENQVKKYHRLKEEASKRAATLAQELEKFNRDQKADQDRLDLEERKKVETEAKIKQKLREIEENQKRIEKLEEYITTSKQSLEEQKKLEGELTEEVEMAKRRIDEINKELNQVMEQLGDARIDRQESSRQQRKAEIMESIKRLYPGSVYGRLIDLCQPTQKKYQIAVTKVLGKNMDAIIVDSEKTGRDCIQYIKEQRGEPETFLPLDYLEVKPTDEKLRELKGAKLVIDVIRYEPPHIKKALQYACGNALVCDNVEDARRIAFGGHQRHKTVALDGTLFQKSGVISGGASDLKAKARRWDEKAVDKLKEKKERLTEELKEQMKAKRKEAELRQVQSQAHGLQMRLKYSQSDLEQTKTRHLALNLQEKSKLESELANFGPRINDIKRIIQSREREMKDLKEKMNQVEDEVFEEFCREIGVRNIREFEEEKVKRQNEIAKKRLEFENQKTRLGIQLDFEKNQLKEDQDKVHMWEQTVKKDENEIEKLKKEEQRHMKIIDETMAQLQDLKNQHLAKKSEVNDKNHEMEEIRKKLGGANKEMTHLQKEVTAIETKLEQKRSDRHNLLQACKMQDIKLPLSKGTMDDISQEEGSSQGEDSVSGSQRISSIYAREALIEIDYGDLCEDLKDAQAEEEIKQEMNTLQQKLNEQQSVLQRIAAPNMKAMEKLESVRDKFQETSDEFEAARKRAKKAKQAFEQIKKERFDRFNACFESVATNIDEIYKALSRNSSAQAFLGPENPEEPYLDGINYNCVAPGKRFRPMDNLSGGEKTVAALALLFAIHSYKPAPFFVLDEIDAALDNTNIGKVANYIKEQSTCNFQAIVISLKEEFYTKAESLIGVYPEQGDCVISKVLTFDLTKYPDANPNPNEQ
B2: mediator subunit 23 (MED23) (protein, UniProt Q9ULK4 1-1368)
chain: METQLQSIFEEVVKTEVIEEAFPGMFMDTPEDEKTKLISCLGAFRQFWGGLSQESHEQCIQWIVKFIHGQHSPKRISFLYDCLAMAVETGLLPPRLVCESLINSDTLEWERTQLWALTFKLVRKIIGGVDYKGVRDLLKVILEKILTIPNTVSSAVVQQLLAAREVIAYILERNACLLPAYFAVTEIRKLYPEGKLPHWLLGNLVSDFVDTFRPTARINSICGRCSLLPVVNNSGAICNSWKLDPATLRFPLKGLLPYDKDLFEPQTALLRYVLEQPYSRDMVCNMLGLNKQHKQRCPVLEDQLVDLVVYAMERSETEEKFDDGGTSQLLWQHLSSQLIFFVLFQFASFPHMVLSLHQKLAGRGLIKGRDHLMWVLLQFISGSIQKNALADFLPVMKLFDLLYPEKEYIPVPDINKPQSTHAFAMTCIWIHLNRKAQNDNSKLQIPIPHSLRLHHEFLQQSLRNKSLQMNDYKIALLCNAYSTNSECFTLPMGALVETIYGNGIMRIPLPGTNCMASGSITPLPMNLLDSLTVHAKMSLIHSIATRVIKLAHAKSSVALAPALVETYSRLLVYMEIESLGIKGFISQLLPTVFKSHAWGILHTLLEMFSYRMHHIQPHYRVQLLSHLHTLAAVAQTNQNQLHLCVESTALRLITALGSSEVQPQFTRFLSDPKTVLSAESEELNRALILTLARATHVTDFFTGSDSIQGTWCKDILQTIMSFTPHNWASHTLSCFPGPLQAFFKQNNVPQESRFNLKKNVEEEYRKWKSMSNENDIITHFSMQGSPPLFLCLLWKMLLETDHINQIGYRVLERIGARALVAHVRTFADFLVYEFSTSAGGQQLNKCIEILNDMVWKYNIVTLDRLILCLAMRSHEGNEAQVCYFIIQLLLLKPNDFRNRVSDFVKENSPEHWLQNDWHTKHMNYHKKYPEKLYFEGLAEQVDPPVQIQSPYLPIYFGNVCLRFLPVFDIVIHRFLELLPVSKSLETLLDHLGGLYKFHDRPVTYLYNTLHYYEMHLRDRAFLKRKLVHAIIGSLKDNRPQGWCLSDTYLKCAMNAREENPWVPDDTYYCRLIGRLVDTMAGKSPGPFPNCDWRFNEFPNPAAHALHVTCVELMALAVSGKEVGNALLNVVLKSQPLVPRENITAWMNAIGLIITALPEPYWIVLHDRIVSVISSPSLTSETEWVGYPFRLFDFTACHQSYSEMSCSYTLALAHAVWHHSSIGQLSLIPKFLTEVLLPIVKTEFQLLYVYHLVGPFLQRFQQERTRCMIEIGVAFYDMLLNVDQCSTHLNYMDPICDFLYHMKYMFTGDSVKEQVEKIICNLKPALKLRLRFITHISKMEPAAVPPQAMNSGSPAPQSNQVPVSLPVTQ
B3: MED24 (protein, UniProt O75448 1-989)
chain: MKVVNLKQAILQAWKERWSDYQWAINMKKFFPKGATWDILNLADALLEQAMIGPSPNPLILSYLKYAISSQMVSYSSVLTAISKFDDFSRDLCVQALLDIMDMFCDRLSCHGKAEECIGLCRALLSALHWLLRCTAASAERLREGLEAGTPAAGEKQLAMCLQRLEKTLSSTKNRALLHIAKLEEASSWTAIEHSLLKLGEILANLSNPQLRSQAEQCGTLIRSIPTMLSVHAEQMHKTGFPTVHAVILLEGTMNLTGETQSLVEQLTMVKRMQHIPTPLFVLEIWKACFVGLIESPEGTEELKWTAFTFLKIPQVLVKLKKYSHGDKDFTEDVNCAFEFLLKLTPLLDKADQRCNCDCTNFLLQECGKQGLLSEASVNNLMAKRKADREHAPQQKSGENANIQPNIQLILRAEPTVTNILKTMDADHSKSPEGLLGVLGHMLSGKSLDLLLAAAAATGKLKSFARKFINLNEFTTYGSEESTKPASVRALLFDISFLMLCHVAQTYGSEVILSESRTGAEVPFFETWMQTCMPEEGKILNPDHPCFRPDSTKVESLVALLNNSSEMKLVQMKWHEACLSISAAILEILNAWENGVLAFESIQKITDNIKGKVCSLAVCAVAWLVAHVRMLGLDEREKSLQMIRQLAGPLFSENTLQFYNERVVIMNSILERMCADVLQQTATQIKFPSTGVDTMPYWNLLPPKRPIKEVLTDIFAKVLEKGWVDSRSIHIFDTLLHMGGVYWFCNNLIKELLKETRKEHTLRAVELLYSIFCLDMQQVTLVLLGHILPGLLTDSSKWHSLMDPPGTALAKLAVWCALSSYSSHKGQASTRQKKRHREDIEDYISLFPLDDVQPSKLMRLLSSNEDDANILSSPTDRSMSSSLSASQLHTVNMRDPLNRVLANLFLLISSILGSRTAGPHTQFVQWFMEECVDCLEQGGRGSVLQFMPFTTVSELVKVSAMSSPKVVLAITDLSLPLGRQVAAKAIAAL

These are yes or no findings as the source states them, for the method shown. In cells and extracts the contact can be indirect. Here binding means that the protein was enriched with, or labelled near, the bait; the list need not be complete.

This assay addresses EGFP–STrEP-paxillin (PXN) (human) (UniProt P49023). In words: affinity purification with mass spectrometry; Strep-Tactin sepharose beads added to the lysate of HEK293 cells stably expressing tagged paxillin or tagged EGFP (control), 2 h; lysis buffer 20 mM HEPES-KOH pH 7.40, 5 mM CH3COOK, 150 mM NaCl, 0.5 mM MgCl2, 0.5 mM DTT, 0.5% Triton X-100; eluted with 50 mM Tris-HCl pH 8.00, 2.5 mM desthiobiotin; trypsin digest, LC-MS-MS.
Consider MED15 (from UniProt Q96RN5 1-788), for which the binding result is recorded as “binds”.
The value for “structural maintenance of chromosomes 3 protein (SMC3) (from UniProt Q9UQE7 1-1217)” was “binds”; that for B1 was “binds”; that for B2 was “binds”.
Take B3: the binding entry is “binds”.
